Measured values from US9796676B2, “Honeybee repellents and uses thereof” (Inscent, Inc., priority 2013, dated 2017).

Tested on: OBP2
Experiment: Fluorescent-quench ligand-protein-binding assay (OBP2 binding)
Parameters: species or system Apis mellifera
Source text: To identify a honeybee repellent disclosed herein, candidate compounds were screened based upon the fact that 2-heptanone is an established repellent of bees. 2-heptanone is thought to mediate its behavioral response through binding to a specific odorant-binding protein called OBP2. Therefore compounds that bind OBP2 have the potential to act as odor “mimics” of 2-heptanone. By utilizing a fluorescent-quench, ligand-protein-binding assay, 30,000 compounds from the […]® library (ChemBridge Corp., San Diego, Calif.), a chemical library, were screened and over 150 candidate compounds were isolated that bind OBP2 (Table 1). Such assays are generally known in the art. See, e.g., Briand, et al., Ligand-Binding Properties and Structural Characterization of a Novel Rat Odorant-Binding Protein Variant, Eur. J. Biochem. 267(10): 3079-3089 (2000); Briand, et al., Ligand Binding and Physico-Chemical Properties of ASP2, A Recombinant Odorant-Binding Protein From Honeybee (Apis mellifera L.), Eur. J. Biochem. 268(3): 752-760 (2001); Briand, et al., Characterization of a Chemosensory Protein (ASP3c) from Honeybee (Apis mellifera L.) as a Brood Pheromone Carrier, Eur. J. Biochem. 269(18): 4586-4596 (2002), each of which is hereby incorporated by reference in its entirety.

## O=C(CCN1C(=O)c2ccccc2C1=O)N1CCN(C2c3ccccc3-c3ccccc32)CC1 [compound 100]
  OBP2 binding characteristic of compound: Moderate (Moderate, indicates that 50% or less of the compound bound to OBP2.)
